# The other results are listed elsewhere or left out.
# What was measured:
# Test in all cases: glycan array binding signal (z-score within array); higher = stronger binding
# Details in all cases: glycan notation: IUPAC condensed, linker removed
# [1] = molecular target: Neu5Ac(a2-6)GalNAc
# Summary of the method: (§1)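 Glycan array data were curated from 3228 arrays in the Consortium for Functional Glycomics database and kept only where the protein sequence was available. Glycan names were converted to IUPAC-condensed notation, and columns mapping to the same glycan were averaged. The binding signal is a within-array Z-score, averaged across arrays of the same protein sequence at different concentrations or buffers and across linkers. Negative Z-scores can be read as non-binding.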
# [2] = molecular target: Neu5Ac(a2-6)GalNAc(b1-4)GlcNAc
# Summary of the method: as §1
# [3] = molecular target: Neu5Ac(a2-6)GalNAc(b1-4)GlcNAc6S
# Summary of the method: as §1
# [4] = molecular target: Neu5Ac(a2-6)GlcNAc(b1-4)GlcNAc
# Summary of the method: as §1
# [5] = molecular target: Neu5Ac(a2-6)GlcNAc(b1-4)GlcNAc(b1-4)GlcNAc
# Summary of the method: as §1
# [6] = molecular target: Neu5Ac(a2-8)Neu5Ac
# Summary of the method: as §1
# [7] = molecular target: Neu5Ac(a2-8)Neu5Ac(a2-3)Gal(b1-3)GalNAc(b1-4)[Neu5Ac(a2-3)]Gal(b1-4)Glc
# Summary of the method: as §1
# [8] = molecular target: Neu5Ac(a2-8)Neu5Ac(a2-3)Gal(b1-3)GalNAc(b1-4)[Neu5Ac(a2-8)Neu5Ac(a2-3)]Gal(b1-4)Glc
# Summary of the method: as §1
# [9] = molecular target: Neu5Ac(a2-8)Neu5Ac(a2-3)Gal(b1-4)Glc
# Summary of the method: as §1
# [10] = molecular target: Neu5Ac(a2-8)Neu5Ac(a2-3)Gal(b1-4)GlcNAc
# Summary of the method: as §1
# [11] = molecular target: Neu5Ac(a2-8)Neu5Ac(a2-3)[Gal(b1-3)GalNAc(b1-4)]Gal(b1-4)Glc
# Summary of the method: as §1
# [12] = molecular target: Neu5Ac(a2-8)Neu5Ac(a2-3)[GalNAc(b1-4)]Gal(b1-4)Glc
# Summary of the method: as §1
# [13] = molecular target: Neu5Ac(a2-8)Neu5Ac(a2-8)Neu5Ac
# Summary of the method: as §1
# [14] = molecular target: Neu5Ac(a2-8)Neu5Ac(a2-8)Neu5Ac(a2-3)Gal(b1-4)Glc
# Summary of the method: as §1
# [15] = molecular target: Neu5Ac(a2-8)Neu5Ac(a2-8)Neu5Ac(a2-3)[Gal(b1-3)GalNAc(b1-4)]Gal(b1-4)Glc
# Summary of the method: as §1
# [16] = molecular target: Neu5Ac(a2-8)Neu5Ac(a2-8)Neu5Ac(a2-3)[GalNAc(b1-4)]Gal(b1-4)Glc
# Summary of the method: as §1
# [17] = molecular target: Neu5Ac(a2-8)Neu5Ac(a2-8)Neu5Ac(a2-8)Neu5Ac(a2-3)[GalNAc(b1-4)]Gal(b1-4)Glc
# Summary of the method: as §1
# [18] = molecular target: Neu5Ac(a2-8)Neu5Gc(a2-3)Gal(b1-4)GlcNAc
# Summary of the method: as §1
# [19] = molecular target: Neu5Ac(b2-6)Gal(b1-4)GlcNAc
# Summary of the method: as §1
# [20] = molecular target: Neu5Ac(b2-6)GalNAc
# Summary of the method: as §1
# [21] = molecular target: Neu5Ac9Ac(a2-3)Gal(b1-3)GlcNAc
# Summary of the method: as §1
# [22] = molecular target: Neu5Ac9Ac(a2-3)Gal(b1-4)GlcNAc
# Summary of the method: as §1
# [23] = molecular target: Neu5Ac9Ac(a2-6)Gal(b1-4)GlcNAc
# Summary of the method: as §1
# [24] = molecular target: Neu5Gc(a2-3)Gal(b1-3)GlcNAc
# Summary of the method: as §1
# [25] = molecular target: Neu5Gc(a2-3)Gal(b1-3)[Fuc(a1-4)]GlcNAc
# Summary of the method: as §1
# [26] = molecular target: Neu5Gc(a2-3)Gal(b1-4)Glc
# Summary of the method: as §1
# [27] = molecular target: Neu5Gc(a2-3)Gal(b1-4)GlcNAc
# Summary of the method: as §1
# [28] = molecular target: Neu5Gc(a2-3)Gal(b1-4)GlcNAc(b1-3)Gal(b1-4)GlcNAc(b1-2)Man(a1-3)[Neu5Gc(a2-3)Gal(b1-4)GlcNAc(b1-3)Gal(b1-4)GlcNAc(b1-2)Man(a1-6)]Man(b1-4)GlcNAc(b1-4)GlcNAc
# Summary of the method: as §1
# [29] = molecular target: Neu5Gc(a2-3)Gal(b1-4)[Fuc(a1-3)]GlcNAc
# Summary of the method: as §1
# [30] = molecular target: Neu5Gc(a2-6)Gal(b1-4)GlcNAc
# Summary of the method: as §1
# [31] = molecular target: Neu5Gc(a2-6)GalNAc
# Summary of the method: as §1
# [32] = molecular target: Neu5Gc(a2-8)Neu5Ac(a2-3)Gal(b1-4)GlcNAc
# Summary of the method: as §1
# [33] = molecular target: Neu5Gc(a2-8)Neu5Gc(a2-3)Gal(b1-4)GlcNAc
# Summary of the method: as §1
# [34] = molecular target: Neu5Gc(a2-8)Neu5Gc(a2-3)Gal(b1-4)GlcNAc(b1-3)Gal(b1-4)GlcNAc
# Summary of the method: as §1
# [35] = molecular target: Neu5Gc(a2-8)Neu5Gc(a2-6)Gal(b1-4)GlcNAc
# Summary of the method: as §1
# [36] = molecular target: Neu5Gc(b2-6)Gal(b1-4)GlcNAc
# Summary of the method: as §1
binder,measurement,setting,value
"Flo1 (Saccharomyces cerevisiae), P32768 (protein) SGATEACLPAGQRKSGMNINFYQYSLKDSSTYSNAAYMAYGYASKTKLGSVGGQTDISIDYNIPCVSSSGTFPCPQEDSYGNWGCKGMGACSNSQGIAYWSTDLFGFYTTPTNVTLEMTGYFLPPQTGSYTFKFATVDDSAILSVGGATAFNCCAQQQPPITSTNFTIDGIKPWGGSLPPNIEGTVYMYAGYYYPMKVVYSNAVSWGTLPISVTLPDGTTVSDDFEGYVYSFDDDLSQSNCTVPDPSNY",glycan array binding signal (z-score),[1],-0.139
same,glycan array binding signal (z-score),[2],-0.312
same,glycan array binding signal (z-score),[3],-0.376
same,glycan array binding signal (z-score),[4],-0.394
same,glycan array binding signal (z-score),[5],-0.079
same,glycan array binding signal (z-score),[6],-0.34
same,glycan array binding signal (z-score),[7],1.62
same,glycan array binding signal (z-score),[8],-0.152
same,glycan array binding signal (z-score),[9],-0.541
same,glycan array binding signal (z-score),[10],-0.603
same,glycan array binding signal (z-score),[11],0.328
same,glycan array binding signal (z-score),[12],-0.046
same,glycan array binding signal (z-score),[13],-0.27
same,glycan array binding signal (z-score),[14],-0.271
same,glycan array binding signal (z-score),[15],-0.551
same,glycan array binding signal (z-score),[16],-0.419
same,glycan array binding signal (z-score),[17],0.047
same,glycan array binding signal (z-score),[18],-0.252
same,glycan array binding signal (z-score),[19],-0.394
same,glycan array binding signal (z-score),[20],-0.283
same,glycan array binding signal (z-score),[21],-0.754
same,glycan array binding signal (z-score),[22],-0.483
same,glycan array binding signal (z-score),[23],-0.52
same,glycan array binding signal (z-score),[24],-0.129
same,glycan array binding signal (z-score),[25],-0.569
same,glycan array binding signal (z-score),[26],1.18
same,glycan array binding signal (z-score),[27],-0.264
same,glycan array binding signal (z-score),[28],-0.814
same,glycan array binding signal (z-score),[29],-0.021
same,glycan array binding signal (z-score),[30],-0.199
same,glycan array binding signal (z-score),[31],-0.148
same,glycan array binding signal (z-score),[32],0.52
same,glycan array binding signal (z-score),[33],0.147
same,glycan array binding signal (z-score),[34],-0.661
same,glycan array binding signal (z-score),[35],0.534
same,glycan array binding signal (z-score),[36],1.14

# A run of entries from further up:
binder,measurement,setting,value
"Flo1 (Saccharomyces cerevisiae), P32768 (protein) SGATEACLPAGQRKSGMNINFYQYSLKDSSTYSNAAYMAYGYASKTKLGSVGGQTDISIDYNIPCVSSSGTFPCPQEDSYGNWGCKGMGACSNSQGIAYWSTDLFGFYTTPTNVTLEMTGYFLPPQTGSYTFKFATVDDSAILSVGGATAFNCCAQQQPPITSTNFTIDGIKPWGGSLPPNIEGTVYMYAGYYYPMKVVYSNAVSWGTLPISVTLPDGTTVSDDFEGYVYSFDDDLSQSNCTVPDPSNY",glycan array binding signal (z-score),[34],-0.661
same,glycan array binding signal (z-score),[35],0.534

# From the supplement of paper PMC8728848
